Laboratory results: PubChem BioAssay AID1259254 (NCATS, 2017)
Shown is a random part of about 59,000 reagents. About 1,550 of all reagents (2.6%) were called active. 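G2 share is only a proxy for re-replication; each gene was hit by three separate siRNAs, and active genes were retested.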 Unmarked entries are inactive. The numbers tell different reagents against one gene apart. Not all columns of the deposit are shown. No sequences are given here. The record does not give: the amount of reagent.

- Screen: 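Genome-wide screen for genes that prevent DNA re-replication in cancer cells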 (primary screen)
- Cell system: human HCT116 colorectal cancer cells
- Reagent: single siRNA against human genes
- Timing: 3 days
- Measured: 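Imaged Hoechst DNA stain sorts each cell into a cycle phase by DNA amount; per plate, G2 fraction set to 0% for non-targeting and 100% for GMNN siRNA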
- Reading the numbers: G2 robust z-score: higher = more G2 cells, more excess DNA replication
- Hit rule: 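Active siRNAs have a G2 robust z of 5 or more median absolute deviations over the median, which in these data means about 38% or higher of GMNN control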

gene knocked down	reagent	G2 robust z-score
FTO (FTO alpha-ketoglutarate dependent dioxygenase)	1	-0.232
FTO (FTO alpha-ketoglutarate dependent dioxygenase)	2	0.359
FTO (FTO alpha-ketoglutarate dependent dioxygenase)	3	2.56
GSTM4 (glutathione S-transferase mu 4)	1	-1.21
GSTM4 (glutathione S-transferase mu 4)	2	0.642
GSTM4 (glutathione S-transferase mu 4)	3	0.456
ARHGEF1 (Rho guanine nucleotide exchange factor 1)	1	-0.083
ARHGEF1 (Rho guanine nucleotide exchange factor 1)	2	-0.501
ARHGEF1 (Rho guanine nucleotide exchange factor 1)	3	0.835
KARS1 (lysyl-tRNA synthetase 1)	1	-0.834
KARS1 (lysyl-tRNA synthetase 1)	2	-0.89
KARS1 (lysyl-tRNA synthetase 1)	3	0.0567
ANAPC4 (anaphase promoting complex subunit 4)	1	1.17
ANAPC4 (anaphase promoting complex subunit 4)	2	1.31
ANAPC4 (anaphase promoting complex subunit 4)	3	-0.0851
ZNF512B (zinc finger protein 512B)	1	0.569
ZNF512B (zinc finger protein 512B)	2	2.16
ZNF512B (zinc finger protein 512B)	3	-0.189
LINC01501 (long independently transcribed non-coding RNA 1501)	1	0.161
LINC01501 (long independently transcribed non-coding RNA 1501)	2	1.01
LINC01501 (long independently transcribed non-coding RNA 1501)	3	2.85
VPS26B (VPS26 retromer complex component B)	1	-0.385
VPS26B (VPS26 retromer complex component B)	2	-0.356
VPS26B (VPS26 retromer complex component B)	3	-0.35
CYP39A1 (cytochrome P450 family 39 subfamily A member 1)	1	1.47
CYP39A1 (cytochrome P450 family 39 subfamily A member 1)	2	3.43
CYP39A1 (cytochrome P450 family 39 subfamily A member 1)	3	0.115

Taken from above:
VPS26B (VPS26 retromer complex component B) #1, G2 robust z-score: -0.385
Result of FTO (FTO alpha-ketoglutarate dependent dioxygenase) #1 under “G2 robust z-score”: -0.232
Result for GSTM4 (glutathione S-transferase mu 4) #1 under “G2 robust z-score”: -1.21
Value of ANAPC4 (anaphase promoting complex subunit 4) #1 in “G2 robust z-score”: 1.17
Under “G2 robust z-score”, KARS1 (lysyl-tRNA synthetase 1) #1 is entered as -0.834
Under “G2 robust z-score”, ANAPC4 (anaphase promoting complex subunit 4) #3 reads -0.0851

The results go on:
gene knocked down	reagent	G2 robust z-score
OR5T2 (olfactory receptor family 5 subfamily T member 2)	1	-0.184
OR5T2 (olfactory receptor family 5 subfamily T member 2)	2	1.64
OR5T2 (olfactory receptor family 5 subfamily T member 2)	3	-0.0355
DCN (decorin)	1	-0.486
DCN (decorin)	2	2.56
DCN (decorin)	3	2.47
DEFB107A (defensin beta 107A)	1	-0.0603
DEFB107A (defensin beta 107A)	2	-0.812
DEFB107A (defensin beta 107A)	3	-0.848
SMG6 (SMG6 nonsense mediated mRNA decay factor)	1	-1.67
SMG6 (SMG6 nonsense mediated mRNA decay factor)	2	-0.735
SMG6 (SMG6 nonsense mediated mRNA decay factor)	3	3.56
TOR1AIP2 (torsin 1A interacting protein 2)	1	5.11 (active)
TOR1AIP2 (torsin 1A interacting protein 2)	2	-0.664
TOR1AIP2 (torsin 1A interacting protein 2)	3	-0.331
TOR1AIP2 (torsin 1A interacting protein 2)	4	0.0635
TOR1AIP2 (torsin 1A interacting protein 2)	5	-0.92
TOR1AIP2 (torsin 1A interacting protein 2)	6	0.427
MTCL2 (microtubule crosslinking factor 2)	1	0.273
MTCL2 (microtubule crosslinking factor 2)	2	-0.0273
MTCL2 (microtubule crosslinking factor 2)	3	-0.135
LRRC73 (leucine rich repeat containing 73)	1	0.0791
LRRC73 (leucine rich repeat containing 73)	2	1.92
LRRC73 (leucine rich repeat containing 73)	3	9.06 (active)
JMJD6	1	0.239
JMJD6	2	0.11
JMJD6	3	-0.776
ANKMY2 (ankyrin repeat and MYND domain containing 2)	1	-0.261
ANKMY2 (ankyrin repeat and MYND domain containing 2)	2	2.64
ANKMY2 (ankyrin repeat and MYND domain containing 2)	3	0.34
SAA4 (serum amyloid A4, constitutive)	1	1.13
SAA4 (serum amyloid A4, constitutive)	2	2.51
SAA4 (serum amyloid A4, constitutive)	3	-0.825
LTC4S (leukotriene C4 synthase)	1	-0.734
LTC4S (leukotriene C4 synthase)	2	-1.39
LTC4S (leukotriene C4 synthase)	3	2.6
ZNF346 (zinc finger protein 346)	1	-0.303
ZNF346 (zinc finger protein 346)	2	-0.197
ZNF346 (zinc finger protein 346)	3	1.73
ZNF611 (zinc finger protein 611)	1	-0.0175
ZNF611 (zinc finger protein 611)	2	0.00724
ZNF611 (zinc finger protein 611)	3	2.32
